Reference: paper PMC8534408
These are yes or no findings as the source states them, for the method shown. In cells and extracts the contact can be indirect. A result given as binding can be weak or reduced; the word gives no strength.

Target: SH.SZT2WT (STREP-HA tagged seizure threshold 2, wild type) (human)
Assay: pull-down; eluates of the Strep-Tactin purification of SH.SZT2WT and SH.GFP (starved or stimulated cells) run on SDS-PAGE and immunoblotted for endogenous proteins

B1: KPTN (protein, UniProt Q9Y664 1-436)
chain: MMGEAAVAAGPCPLREDSFTRFSSQSNVYGLAGGAGGRGELLAATLKGKVLGFRYQDLRQKIRPVAKELQFNYIPVDAEIVSIDTFNKSPPKRGLVVGITFIKDSGDKGSPFLNIYCDYEPGSEYNLDSIAQSCLNLELQFTPFQLCHAEVQVGDQLETVFLLSGNDPAIHLYKENEGLHQFEEQPVENLFPELTNLTSSVLWLDVHNFPGTSRRLSALGCQSGYVRVAHVDQRSREVLQMWSVLQDGPISRVIVFSLSAAKETKDRPLQDEYSVLVASMLEPAVVYRDLLNRGLEDQLLLPGSDQFDSVLCSLVTDVDLDGRPEVLVATYGQELLCYKYRGPESGLPEAQHGFHLLWQRSFSSPLLAMAHVDLTGDGLQELAVVSLKGVHILQHSLIQASELVLTRLRHQVEQRRRRLQGLEDGAGAGPAENAAS
  binding: binds
